For this experiment, the target named is MUC5AC (human (endogenous in HCT-8 and LS174T)) (UniProt P98088). As to the kind of experiment: co-IP; endogenous proteins from HCT-8 and LS174T lysates (1 mg/ml, pre-cleared); MUC5AC antibody (3 ug) on protein A/G plus agarose beads, 4 °C, 5-6 h; washed with RIPA buffer; blot with anti-CD44; IgG isotype control.

The chains behind the UniProt entries cited, without tags or fusion partners. Residues count along the entry.
UniProt P98088, residues 28-5654: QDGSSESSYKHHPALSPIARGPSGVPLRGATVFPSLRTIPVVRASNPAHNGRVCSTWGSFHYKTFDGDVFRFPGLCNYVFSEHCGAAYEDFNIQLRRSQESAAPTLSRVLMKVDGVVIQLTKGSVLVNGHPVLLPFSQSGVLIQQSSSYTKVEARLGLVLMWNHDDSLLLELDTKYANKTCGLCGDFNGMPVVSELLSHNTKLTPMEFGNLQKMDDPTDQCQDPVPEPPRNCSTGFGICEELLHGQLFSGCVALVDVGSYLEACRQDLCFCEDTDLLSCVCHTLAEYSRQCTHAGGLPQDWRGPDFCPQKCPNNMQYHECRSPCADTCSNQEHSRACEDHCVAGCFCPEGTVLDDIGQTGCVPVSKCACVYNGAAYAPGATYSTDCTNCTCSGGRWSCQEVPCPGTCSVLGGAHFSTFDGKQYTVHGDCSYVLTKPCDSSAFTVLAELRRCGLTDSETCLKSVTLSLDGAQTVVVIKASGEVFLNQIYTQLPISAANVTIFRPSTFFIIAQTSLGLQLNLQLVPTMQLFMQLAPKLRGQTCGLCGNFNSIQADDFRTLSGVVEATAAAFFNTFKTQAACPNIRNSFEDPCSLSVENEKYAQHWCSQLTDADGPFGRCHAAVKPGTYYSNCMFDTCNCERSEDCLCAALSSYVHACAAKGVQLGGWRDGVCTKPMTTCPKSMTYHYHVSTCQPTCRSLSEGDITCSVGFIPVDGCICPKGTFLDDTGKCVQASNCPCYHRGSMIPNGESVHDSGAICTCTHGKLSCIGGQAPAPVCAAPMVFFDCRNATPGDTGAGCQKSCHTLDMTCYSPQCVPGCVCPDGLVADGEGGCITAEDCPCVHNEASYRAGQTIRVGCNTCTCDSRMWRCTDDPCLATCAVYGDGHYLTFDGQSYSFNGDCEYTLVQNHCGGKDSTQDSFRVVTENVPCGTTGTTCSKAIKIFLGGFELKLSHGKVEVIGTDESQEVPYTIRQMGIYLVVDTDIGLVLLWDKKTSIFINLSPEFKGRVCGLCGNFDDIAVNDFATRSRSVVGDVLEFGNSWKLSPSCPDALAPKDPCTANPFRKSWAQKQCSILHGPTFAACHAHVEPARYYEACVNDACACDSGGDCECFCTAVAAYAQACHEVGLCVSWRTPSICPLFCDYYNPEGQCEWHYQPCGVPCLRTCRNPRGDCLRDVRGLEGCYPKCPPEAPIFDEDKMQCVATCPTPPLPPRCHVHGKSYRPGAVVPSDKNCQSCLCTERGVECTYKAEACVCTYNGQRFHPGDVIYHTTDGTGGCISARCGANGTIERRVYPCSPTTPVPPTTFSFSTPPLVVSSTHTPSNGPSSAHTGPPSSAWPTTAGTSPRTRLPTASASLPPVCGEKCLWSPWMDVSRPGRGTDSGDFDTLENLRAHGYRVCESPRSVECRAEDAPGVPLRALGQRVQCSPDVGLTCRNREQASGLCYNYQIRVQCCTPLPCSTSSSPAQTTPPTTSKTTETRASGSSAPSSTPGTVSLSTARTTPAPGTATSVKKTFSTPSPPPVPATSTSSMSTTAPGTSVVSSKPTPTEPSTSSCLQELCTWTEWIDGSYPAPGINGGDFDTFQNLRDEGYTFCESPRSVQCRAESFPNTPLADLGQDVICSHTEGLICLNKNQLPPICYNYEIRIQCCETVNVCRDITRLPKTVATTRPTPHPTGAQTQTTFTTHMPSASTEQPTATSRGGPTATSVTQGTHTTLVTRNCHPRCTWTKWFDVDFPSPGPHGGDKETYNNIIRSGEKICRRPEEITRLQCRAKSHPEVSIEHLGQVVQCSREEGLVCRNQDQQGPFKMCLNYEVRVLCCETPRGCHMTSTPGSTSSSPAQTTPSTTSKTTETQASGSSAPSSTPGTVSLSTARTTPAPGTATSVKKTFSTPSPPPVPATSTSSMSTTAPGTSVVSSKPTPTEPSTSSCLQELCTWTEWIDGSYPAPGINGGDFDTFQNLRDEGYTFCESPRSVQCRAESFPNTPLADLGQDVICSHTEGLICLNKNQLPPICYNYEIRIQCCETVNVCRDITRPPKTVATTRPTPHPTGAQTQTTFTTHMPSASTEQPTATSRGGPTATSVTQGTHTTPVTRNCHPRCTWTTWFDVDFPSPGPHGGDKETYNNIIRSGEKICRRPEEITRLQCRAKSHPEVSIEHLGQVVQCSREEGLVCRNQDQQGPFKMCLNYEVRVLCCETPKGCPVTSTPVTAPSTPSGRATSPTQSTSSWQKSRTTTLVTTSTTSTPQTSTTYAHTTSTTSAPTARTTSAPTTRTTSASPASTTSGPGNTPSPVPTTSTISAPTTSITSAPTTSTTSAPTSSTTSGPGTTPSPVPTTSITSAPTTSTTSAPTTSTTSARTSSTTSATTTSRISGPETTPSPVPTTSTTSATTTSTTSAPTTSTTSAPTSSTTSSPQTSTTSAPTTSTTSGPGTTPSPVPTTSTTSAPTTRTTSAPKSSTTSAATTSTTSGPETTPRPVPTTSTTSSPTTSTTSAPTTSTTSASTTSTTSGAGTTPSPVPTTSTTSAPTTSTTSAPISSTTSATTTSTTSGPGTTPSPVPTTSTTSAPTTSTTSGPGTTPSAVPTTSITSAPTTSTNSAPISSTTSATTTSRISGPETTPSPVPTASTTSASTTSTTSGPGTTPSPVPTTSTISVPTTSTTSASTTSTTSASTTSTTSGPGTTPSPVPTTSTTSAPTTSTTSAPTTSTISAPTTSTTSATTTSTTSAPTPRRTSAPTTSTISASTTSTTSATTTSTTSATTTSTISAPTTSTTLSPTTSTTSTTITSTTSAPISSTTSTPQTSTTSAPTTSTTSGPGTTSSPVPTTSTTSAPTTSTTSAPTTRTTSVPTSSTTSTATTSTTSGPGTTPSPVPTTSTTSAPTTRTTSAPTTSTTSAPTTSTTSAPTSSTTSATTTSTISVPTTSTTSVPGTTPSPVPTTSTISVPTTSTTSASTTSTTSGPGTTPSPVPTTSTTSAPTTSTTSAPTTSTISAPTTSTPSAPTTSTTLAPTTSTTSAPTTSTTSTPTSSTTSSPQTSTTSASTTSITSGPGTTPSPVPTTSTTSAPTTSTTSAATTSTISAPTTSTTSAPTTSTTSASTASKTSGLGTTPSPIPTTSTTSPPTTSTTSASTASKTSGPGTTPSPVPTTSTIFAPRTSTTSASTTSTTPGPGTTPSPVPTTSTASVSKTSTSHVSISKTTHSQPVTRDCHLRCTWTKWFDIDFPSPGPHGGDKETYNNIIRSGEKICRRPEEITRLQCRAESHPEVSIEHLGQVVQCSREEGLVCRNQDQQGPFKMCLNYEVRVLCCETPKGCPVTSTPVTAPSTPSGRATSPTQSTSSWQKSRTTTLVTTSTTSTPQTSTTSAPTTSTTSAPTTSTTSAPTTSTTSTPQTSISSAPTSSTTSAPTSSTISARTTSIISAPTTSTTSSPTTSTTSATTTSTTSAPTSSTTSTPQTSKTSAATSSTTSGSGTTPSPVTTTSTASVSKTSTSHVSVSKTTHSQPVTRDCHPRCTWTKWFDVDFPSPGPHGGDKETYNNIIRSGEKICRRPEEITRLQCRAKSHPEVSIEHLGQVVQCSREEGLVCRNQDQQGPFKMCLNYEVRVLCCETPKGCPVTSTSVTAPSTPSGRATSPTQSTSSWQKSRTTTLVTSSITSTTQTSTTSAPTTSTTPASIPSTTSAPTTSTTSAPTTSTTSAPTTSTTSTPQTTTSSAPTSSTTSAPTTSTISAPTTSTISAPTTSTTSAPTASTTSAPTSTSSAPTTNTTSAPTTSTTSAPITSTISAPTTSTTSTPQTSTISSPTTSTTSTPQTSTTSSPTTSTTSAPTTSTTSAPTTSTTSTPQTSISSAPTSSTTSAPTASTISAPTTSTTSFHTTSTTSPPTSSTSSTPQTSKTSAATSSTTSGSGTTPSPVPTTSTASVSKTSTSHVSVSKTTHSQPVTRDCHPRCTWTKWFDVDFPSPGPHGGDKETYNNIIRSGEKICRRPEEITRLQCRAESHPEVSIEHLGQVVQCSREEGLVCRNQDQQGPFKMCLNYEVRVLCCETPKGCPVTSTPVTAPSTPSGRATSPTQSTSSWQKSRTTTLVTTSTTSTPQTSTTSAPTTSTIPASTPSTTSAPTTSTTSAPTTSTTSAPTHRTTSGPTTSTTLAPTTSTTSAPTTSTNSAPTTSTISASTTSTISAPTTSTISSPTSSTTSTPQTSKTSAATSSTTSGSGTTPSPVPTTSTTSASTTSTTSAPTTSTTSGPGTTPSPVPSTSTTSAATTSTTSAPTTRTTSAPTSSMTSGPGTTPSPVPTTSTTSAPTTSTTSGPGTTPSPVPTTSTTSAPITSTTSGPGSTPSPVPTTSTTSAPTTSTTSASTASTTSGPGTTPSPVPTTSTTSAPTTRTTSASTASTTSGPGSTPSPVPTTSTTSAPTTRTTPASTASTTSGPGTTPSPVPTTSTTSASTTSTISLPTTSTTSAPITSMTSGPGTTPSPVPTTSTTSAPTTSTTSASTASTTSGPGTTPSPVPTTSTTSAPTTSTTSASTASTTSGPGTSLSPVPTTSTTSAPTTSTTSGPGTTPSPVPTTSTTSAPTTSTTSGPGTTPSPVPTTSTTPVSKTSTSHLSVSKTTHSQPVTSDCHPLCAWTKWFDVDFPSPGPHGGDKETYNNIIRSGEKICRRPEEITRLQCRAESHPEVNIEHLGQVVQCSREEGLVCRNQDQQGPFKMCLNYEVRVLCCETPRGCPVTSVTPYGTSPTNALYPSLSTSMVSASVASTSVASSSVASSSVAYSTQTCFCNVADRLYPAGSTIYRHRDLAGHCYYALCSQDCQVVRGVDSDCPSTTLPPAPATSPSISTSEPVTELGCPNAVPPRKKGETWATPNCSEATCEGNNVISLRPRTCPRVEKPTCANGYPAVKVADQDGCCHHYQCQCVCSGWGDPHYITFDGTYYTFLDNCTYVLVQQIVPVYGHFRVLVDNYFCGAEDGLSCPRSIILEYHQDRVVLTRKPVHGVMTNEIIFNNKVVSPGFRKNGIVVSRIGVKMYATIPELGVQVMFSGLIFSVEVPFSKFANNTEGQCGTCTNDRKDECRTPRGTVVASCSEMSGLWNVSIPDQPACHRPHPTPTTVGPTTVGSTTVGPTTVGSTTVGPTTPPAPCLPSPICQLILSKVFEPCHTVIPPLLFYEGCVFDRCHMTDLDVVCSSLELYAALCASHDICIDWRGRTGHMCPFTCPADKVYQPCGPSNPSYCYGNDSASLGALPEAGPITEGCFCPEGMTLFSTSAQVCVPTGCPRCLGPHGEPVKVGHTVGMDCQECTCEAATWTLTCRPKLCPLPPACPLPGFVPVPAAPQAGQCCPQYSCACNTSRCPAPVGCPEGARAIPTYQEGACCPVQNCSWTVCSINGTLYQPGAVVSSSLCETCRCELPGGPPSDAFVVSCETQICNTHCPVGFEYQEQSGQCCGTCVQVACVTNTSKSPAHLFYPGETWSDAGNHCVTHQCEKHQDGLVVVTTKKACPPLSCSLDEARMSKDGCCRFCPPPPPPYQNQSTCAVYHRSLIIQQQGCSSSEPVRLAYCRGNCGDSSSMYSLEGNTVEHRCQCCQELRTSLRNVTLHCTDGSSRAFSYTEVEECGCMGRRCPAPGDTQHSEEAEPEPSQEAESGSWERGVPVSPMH
UniProt P16070, residues 21-742: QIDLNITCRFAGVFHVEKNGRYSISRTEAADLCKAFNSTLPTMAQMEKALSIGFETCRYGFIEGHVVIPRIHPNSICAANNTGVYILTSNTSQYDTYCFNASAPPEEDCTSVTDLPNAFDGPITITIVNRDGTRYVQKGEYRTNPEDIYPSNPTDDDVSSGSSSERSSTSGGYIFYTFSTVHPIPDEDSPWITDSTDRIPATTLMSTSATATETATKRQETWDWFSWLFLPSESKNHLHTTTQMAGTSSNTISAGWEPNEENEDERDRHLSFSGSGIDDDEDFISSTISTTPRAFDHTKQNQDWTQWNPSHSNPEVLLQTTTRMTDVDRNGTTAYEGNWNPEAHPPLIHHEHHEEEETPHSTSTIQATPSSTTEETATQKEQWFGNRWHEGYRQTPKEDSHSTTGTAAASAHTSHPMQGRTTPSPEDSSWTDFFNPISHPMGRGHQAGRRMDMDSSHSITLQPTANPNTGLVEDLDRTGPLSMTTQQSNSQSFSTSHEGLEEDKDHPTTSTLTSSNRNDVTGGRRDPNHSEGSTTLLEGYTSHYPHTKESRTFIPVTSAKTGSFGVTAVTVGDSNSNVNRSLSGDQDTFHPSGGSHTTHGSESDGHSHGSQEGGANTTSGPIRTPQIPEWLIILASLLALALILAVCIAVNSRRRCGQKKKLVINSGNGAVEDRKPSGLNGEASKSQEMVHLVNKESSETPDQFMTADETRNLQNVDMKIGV

Results are given in words; binding and its absence hold for the method and conditions named. In cells and extracts the contact can be indirect. Some binding calls cover weakened binding; strength is not graded here.

As to “CD44 (from UniProt P16070 21-742) (receptor)”, the binding entry is recorded as “binds”.

The values are drawn from publication PMC7041280.
